Assay [1] addresses T1, PHYA apoprotein of Arabidopsis thaliana phytochrome A, in vitro translated, 35S-methionine labeled (Arabidopsis thaliana) (UniProt P14712).
T1 sequence (35S-labeled methionine, looked up): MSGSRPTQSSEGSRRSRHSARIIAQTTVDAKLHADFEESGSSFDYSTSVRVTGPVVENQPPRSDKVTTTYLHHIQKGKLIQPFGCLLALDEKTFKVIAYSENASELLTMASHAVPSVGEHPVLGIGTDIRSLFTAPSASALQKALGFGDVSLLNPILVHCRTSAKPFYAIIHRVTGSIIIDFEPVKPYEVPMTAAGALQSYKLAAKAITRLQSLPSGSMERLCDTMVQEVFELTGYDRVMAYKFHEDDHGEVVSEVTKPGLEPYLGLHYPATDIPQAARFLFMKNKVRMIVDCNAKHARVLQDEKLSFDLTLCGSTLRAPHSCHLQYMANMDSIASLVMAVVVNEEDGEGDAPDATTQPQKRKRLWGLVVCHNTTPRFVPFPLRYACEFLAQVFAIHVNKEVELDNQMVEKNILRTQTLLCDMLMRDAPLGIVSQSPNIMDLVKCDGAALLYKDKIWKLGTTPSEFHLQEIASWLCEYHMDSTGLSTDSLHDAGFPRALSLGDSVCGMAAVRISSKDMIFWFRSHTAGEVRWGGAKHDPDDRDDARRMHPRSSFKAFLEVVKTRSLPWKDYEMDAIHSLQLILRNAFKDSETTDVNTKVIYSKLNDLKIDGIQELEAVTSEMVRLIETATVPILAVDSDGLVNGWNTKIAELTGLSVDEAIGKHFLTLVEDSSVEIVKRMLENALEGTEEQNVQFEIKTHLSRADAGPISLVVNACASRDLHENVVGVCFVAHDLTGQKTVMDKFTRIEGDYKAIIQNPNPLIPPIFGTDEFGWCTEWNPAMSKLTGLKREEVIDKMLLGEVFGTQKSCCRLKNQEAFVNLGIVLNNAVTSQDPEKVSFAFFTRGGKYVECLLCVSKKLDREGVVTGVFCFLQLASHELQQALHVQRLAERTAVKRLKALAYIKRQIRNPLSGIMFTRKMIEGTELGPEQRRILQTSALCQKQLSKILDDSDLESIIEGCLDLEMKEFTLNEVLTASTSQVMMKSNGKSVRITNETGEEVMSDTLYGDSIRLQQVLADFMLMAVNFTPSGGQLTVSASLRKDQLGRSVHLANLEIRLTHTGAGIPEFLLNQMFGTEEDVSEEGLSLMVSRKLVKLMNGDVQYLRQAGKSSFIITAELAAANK
The experiment in a line: GST pull-down with 35S-labeled in vitro translated phytochrome.

Protein sequences, listed by entry. Tags and fused reporters are not part of them.
UniProt P14713: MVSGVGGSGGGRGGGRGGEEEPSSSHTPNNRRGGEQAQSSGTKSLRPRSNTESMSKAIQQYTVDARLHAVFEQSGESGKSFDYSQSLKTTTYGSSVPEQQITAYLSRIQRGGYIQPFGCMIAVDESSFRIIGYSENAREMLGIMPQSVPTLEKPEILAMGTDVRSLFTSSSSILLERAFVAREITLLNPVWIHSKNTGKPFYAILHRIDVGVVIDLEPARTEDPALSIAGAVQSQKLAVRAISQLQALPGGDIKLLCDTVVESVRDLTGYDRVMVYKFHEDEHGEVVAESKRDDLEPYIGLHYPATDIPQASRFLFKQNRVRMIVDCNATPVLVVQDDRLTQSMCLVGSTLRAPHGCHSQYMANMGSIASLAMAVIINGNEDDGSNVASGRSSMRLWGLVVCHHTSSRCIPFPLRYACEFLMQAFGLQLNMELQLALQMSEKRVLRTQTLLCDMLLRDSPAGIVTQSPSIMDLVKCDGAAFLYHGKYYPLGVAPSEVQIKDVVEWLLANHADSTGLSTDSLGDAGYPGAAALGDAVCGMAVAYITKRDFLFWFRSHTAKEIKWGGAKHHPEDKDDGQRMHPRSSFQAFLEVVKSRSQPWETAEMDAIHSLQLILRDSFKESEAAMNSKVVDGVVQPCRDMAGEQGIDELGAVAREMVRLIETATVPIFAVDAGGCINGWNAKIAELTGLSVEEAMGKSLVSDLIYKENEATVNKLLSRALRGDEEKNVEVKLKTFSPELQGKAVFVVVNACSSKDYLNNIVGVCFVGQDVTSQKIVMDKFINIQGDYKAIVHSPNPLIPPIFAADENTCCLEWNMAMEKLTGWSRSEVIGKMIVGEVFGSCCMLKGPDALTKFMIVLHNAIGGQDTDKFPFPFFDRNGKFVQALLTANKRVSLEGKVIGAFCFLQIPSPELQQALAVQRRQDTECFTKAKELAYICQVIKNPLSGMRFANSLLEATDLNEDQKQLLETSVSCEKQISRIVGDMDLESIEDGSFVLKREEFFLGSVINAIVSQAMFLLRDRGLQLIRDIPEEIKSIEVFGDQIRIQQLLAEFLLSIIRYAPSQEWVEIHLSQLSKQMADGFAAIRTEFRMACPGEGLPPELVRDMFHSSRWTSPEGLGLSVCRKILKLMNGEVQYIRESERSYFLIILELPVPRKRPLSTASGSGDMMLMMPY

The target in assay [2] is PHYB apoprotein of Arabidopsis thaliana phytochrome B, in vitro translated, 35S-methionine labeled (Arabidopsis thaliana) (UniProt P14713). The assay is described as above.
For assay [3], the target named is T1, PHYA apoprotein of Arabidopsis thaliana phytochrome A, in vitro translated, 35S-methionine labeled (Arabidopsis thaliana). As to the kind of experiment: in vitro GST pull-down of 35S-labeled TnT protein on glutathione-sepharose beads, SDS-PAGE.
In assay [4] the target is PHYB apoprotein of Arabidopsis thaliana phytochrome B, in vitro translated, 35S-methionine labeled (Arabidopsis thaliana) (UniProt P14713). Described as above.

These are yes or no findings as the source states them, for the method shown. Binding seen in cells or lysates may run through a third protein. Some entries that bind do so weakly or less than the wild type. Tags and fused reporters may be left off the sequences shown.

B1: GST-TPR (fusion protein of GST and the TPR domain of PAPP5, amino acids 1-138 of SEQ ID NO: 4) (protein, not shown: a dimerising Fc or GST)
chain: METKNENSDVSRAEEFKSQANEAFKGHKYSSAIDLYTKAIELNSNNAVYWANRAFAHTKLEEYGSAIQDASKAIEVDSRYSKGYYRRGAAYLAMGKFKDALKDFQQVKRLSPNDPDATRKLKECEKAVMKLKFEEAIS
Consider B1, for which the binding result in assay [1] and in assay [2] was “binds” throughout.

B2: GST-PAPP5 fusion protein (glutathione-S-transferase fused to full-length PAPP5) (enzyme, not shown: a dimerising Fc or GST)
chain: METKNENSDVSRAEEFKSQANEAFKGHKYSSAIDLYTKAIELNSNNAVYWANRAFAHTKLEEYGSAIQDASKAIEVDSRYSKGYYRRGAAYLAMGKFKDALKDFQQVKRLSPNDPDATRKLKECEKAVMKLKFEEAISVPVSERRSVAESIDFHTIEVEPQYSGARIEGEEVTLDFVKTMMEDFKNQKTLHKRYAYQIVLQTRQILLALPSLVDISVPHGKHITVCGDVHGQFYDLLNIFELNGLPSEENPYLFNGDFVDRGSFSVEIILTLFAFKCMCPSSIYLARGNHESKSMNKIYGFEGEVRSKLSEKFVDLFAEVFCYLPLAHVINGKVFVVHGGLFSVDGVKLSDIRAIDRFCEPPEEGLMCELLWSDPQPLPGRGPSKRGVGLSFGGDVTKRFLQDNNLDLLVRSHEVKDEGYEVEHDGKLITVFSAPNYCDQMGNKGAFIRFEAPDMKPNIVTFSAVPHPDVKPMAYANNFLRMFN
For the molecule B2, the binding entry in assay [3] and in assay [4] was “binds” in each case.

(Values after US20080235826A1.)
